Laboratory results published in doi:10.1101/2020.06.18.159293.
Results are given in words; binding and its absence hold for the method and conditions named. For some of these results: Binding seen in cells or lysates may run through a third protein. Some binding calls cover weakened binding; strength is not graded here. Each block holds one molecule with its values, some of them ahead of it.

Amino acid sequences for entries named in this document (tags omitted). Residues count along the entry.
UniProt Q96C45, whole entry: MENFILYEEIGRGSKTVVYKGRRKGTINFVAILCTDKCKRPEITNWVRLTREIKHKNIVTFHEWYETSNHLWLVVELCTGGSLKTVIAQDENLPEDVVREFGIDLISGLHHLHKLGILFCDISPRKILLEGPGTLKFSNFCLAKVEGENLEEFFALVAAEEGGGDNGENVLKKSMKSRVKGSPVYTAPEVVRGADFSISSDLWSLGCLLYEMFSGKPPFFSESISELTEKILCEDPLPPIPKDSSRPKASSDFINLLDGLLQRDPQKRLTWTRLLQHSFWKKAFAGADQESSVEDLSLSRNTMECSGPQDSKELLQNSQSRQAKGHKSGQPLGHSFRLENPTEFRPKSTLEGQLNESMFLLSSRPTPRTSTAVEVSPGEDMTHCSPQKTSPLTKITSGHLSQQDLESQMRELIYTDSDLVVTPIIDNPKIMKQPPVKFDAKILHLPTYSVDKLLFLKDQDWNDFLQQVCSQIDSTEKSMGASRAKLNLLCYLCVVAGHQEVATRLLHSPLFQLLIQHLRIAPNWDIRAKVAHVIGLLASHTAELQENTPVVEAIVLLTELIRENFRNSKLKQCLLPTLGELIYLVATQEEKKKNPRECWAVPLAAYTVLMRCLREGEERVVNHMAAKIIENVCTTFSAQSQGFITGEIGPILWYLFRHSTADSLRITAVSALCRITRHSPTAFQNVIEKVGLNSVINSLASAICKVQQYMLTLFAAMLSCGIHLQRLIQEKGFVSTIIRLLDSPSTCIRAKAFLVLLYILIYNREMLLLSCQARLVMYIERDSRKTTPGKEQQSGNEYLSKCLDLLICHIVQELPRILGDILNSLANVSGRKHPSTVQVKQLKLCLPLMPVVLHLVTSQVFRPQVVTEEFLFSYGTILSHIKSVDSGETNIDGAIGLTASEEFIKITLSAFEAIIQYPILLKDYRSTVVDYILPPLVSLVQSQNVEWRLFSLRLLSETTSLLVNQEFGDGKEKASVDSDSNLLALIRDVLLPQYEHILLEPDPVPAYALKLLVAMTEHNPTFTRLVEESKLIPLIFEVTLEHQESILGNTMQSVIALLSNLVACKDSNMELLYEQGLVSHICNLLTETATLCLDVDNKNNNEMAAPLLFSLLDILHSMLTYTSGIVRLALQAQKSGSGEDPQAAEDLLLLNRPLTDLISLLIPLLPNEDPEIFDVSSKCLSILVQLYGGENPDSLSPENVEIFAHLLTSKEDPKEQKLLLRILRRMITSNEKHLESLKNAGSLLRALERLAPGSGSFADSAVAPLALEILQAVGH
UniProt Q96C45, 1-288: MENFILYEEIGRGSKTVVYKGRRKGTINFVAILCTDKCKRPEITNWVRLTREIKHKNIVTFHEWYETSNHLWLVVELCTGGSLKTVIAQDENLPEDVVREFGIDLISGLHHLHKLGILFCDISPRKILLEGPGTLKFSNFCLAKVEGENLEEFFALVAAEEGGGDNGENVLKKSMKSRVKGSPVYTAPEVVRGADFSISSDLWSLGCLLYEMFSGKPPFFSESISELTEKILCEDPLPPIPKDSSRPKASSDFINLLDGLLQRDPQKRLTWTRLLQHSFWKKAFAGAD
UniProt O75116, whole entry: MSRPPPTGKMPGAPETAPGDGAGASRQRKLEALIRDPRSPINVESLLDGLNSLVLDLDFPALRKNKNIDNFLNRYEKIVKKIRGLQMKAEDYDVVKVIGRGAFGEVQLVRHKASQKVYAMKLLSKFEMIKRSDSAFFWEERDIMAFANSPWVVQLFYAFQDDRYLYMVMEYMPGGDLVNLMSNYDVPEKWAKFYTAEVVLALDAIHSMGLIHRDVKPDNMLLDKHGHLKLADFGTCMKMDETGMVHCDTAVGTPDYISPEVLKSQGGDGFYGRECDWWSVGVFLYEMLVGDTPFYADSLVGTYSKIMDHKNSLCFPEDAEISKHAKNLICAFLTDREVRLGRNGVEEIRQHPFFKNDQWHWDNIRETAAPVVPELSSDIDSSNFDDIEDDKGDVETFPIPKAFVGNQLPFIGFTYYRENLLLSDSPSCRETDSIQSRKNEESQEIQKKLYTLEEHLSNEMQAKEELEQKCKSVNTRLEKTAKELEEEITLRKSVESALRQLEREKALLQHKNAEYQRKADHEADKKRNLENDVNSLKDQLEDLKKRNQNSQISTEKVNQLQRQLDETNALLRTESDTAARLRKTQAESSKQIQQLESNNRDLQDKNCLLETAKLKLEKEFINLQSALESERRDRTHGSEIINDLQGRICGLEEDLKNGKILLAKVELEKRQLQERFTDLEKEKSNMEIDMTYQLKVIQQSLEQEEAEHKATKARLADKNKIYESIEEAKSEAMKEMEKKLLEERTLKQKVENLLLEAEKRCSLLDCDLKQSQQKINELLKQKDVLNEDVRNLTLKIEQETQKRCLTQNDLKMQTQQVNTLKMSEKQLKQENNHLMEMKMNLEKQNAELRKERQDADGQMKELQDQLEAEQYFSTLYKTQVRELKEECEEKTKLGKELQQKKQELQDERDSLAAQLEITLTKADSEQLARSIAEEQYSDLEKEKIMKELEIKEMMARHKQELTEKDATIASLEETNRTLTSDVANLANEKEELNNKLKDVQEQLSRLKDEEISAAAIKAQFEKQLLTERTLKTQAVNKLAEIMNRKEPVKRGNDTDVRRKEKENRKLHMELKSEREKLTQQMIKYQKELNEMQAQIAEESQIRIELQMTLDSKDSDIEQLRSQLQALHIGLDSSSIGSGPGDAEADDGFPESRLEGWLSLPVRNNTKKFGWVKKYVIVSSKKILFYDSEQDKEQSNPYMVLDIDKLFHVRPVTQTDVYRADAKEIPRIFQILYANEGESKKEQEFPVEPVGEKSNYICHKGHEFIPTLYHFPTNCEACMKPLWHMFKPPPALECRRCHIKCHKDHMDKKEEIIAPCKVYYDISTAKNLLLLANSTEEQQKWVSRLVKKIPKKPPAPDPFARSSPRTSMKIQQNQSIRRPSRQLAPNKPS
UniProt Q5T5Y3, whole entry: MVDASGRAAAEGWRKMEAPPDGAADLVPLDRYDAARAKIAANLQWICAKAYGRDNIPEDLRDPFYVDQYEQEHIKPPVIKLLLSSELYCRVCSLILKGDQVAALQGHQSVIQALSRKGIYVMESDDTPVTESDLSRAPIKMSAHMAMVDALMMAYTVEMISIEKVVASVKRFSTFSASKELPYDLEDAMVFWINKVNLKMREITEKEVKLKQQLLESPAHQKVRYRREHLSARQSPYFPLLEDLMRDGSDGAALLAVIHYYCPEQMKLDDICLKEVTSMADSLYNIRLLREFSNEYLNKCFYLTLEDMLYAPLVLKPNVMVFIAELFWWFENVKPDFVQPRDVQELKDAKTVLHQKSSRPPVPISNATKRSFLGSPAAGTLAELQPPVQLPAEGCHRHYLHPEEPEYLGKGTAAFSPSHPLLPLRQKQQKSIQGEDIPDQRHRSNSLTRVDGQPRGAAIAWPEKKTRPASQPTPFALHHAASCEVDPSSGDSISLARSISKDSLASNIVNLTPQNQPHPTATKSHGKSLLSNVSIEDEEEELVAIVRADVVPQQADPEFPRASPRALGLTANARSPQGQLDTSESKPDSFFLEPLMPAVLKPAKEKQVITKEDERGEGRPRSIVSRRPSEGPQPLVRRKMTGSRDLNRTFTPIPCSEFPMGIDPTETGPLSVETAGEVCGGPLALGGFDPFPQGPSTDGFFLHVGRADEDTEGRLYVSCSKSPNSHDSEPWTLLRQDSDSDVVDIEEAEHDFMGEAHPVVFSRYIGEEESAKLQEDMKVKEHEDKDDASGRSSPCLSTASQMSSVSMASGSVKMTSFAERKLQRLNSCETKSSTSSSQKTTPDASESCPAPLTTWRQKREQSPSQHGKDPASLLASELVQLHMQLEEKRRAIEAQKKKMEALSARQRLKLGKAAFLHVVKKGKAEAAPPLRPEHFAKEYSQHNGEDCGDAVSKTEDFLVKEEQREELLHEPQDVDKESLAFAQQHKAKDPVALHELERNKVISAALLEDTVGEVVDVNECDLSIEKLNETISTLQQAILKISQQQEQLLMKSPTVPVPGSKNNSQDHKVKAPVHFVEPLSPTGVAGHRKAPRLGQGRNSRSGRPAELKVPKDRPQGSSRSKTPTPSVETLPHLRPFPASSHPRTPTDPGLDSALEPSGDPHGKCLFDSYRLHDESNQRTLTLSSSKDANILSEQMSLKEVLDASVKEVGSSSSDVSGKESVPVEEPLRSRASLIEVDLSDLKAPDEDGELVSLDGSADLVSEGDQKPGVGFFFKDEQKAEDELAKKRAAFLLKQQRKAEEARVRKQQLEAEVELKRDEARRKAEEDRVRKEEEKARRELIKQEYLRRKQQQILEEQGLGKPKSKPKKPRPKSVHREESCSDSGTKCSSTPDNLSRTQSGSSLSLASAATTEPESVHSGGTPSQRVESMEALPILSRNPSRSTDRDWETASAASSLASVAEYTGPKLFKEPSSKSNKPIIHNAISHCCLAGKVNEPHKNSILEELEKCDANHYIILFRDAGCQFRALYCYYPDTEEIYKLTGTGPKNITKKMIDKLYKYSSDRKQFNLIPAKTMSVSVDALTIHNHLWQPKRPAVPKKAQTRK

Experiments:
[1] = biological target: C-terminally FLAG-tagged full-length ULK4 (ULK4-BirA*Flag) (human) (UniProt Q96C45); assay: co-sedimentation
[2] = biological target: C-terminally FLAG-tagged full-length ULK4 (ULK4-BirA*Flag) (human) (UniProt Q96C45); assay: co-IP
[3] = biological target: N-terminally FLAG-tagged ULK4 (FlagBirA*-ULK4) (human) (UniProt Q96C45); assay: co-IP
[4] = biological target: ULK4 pseudokinase domain residues 1-288 (ULK4PD) (human) (UniProt Q96C45); assay: SEC

- binding [1]: binds
- binding [2]: binds
- binding [3]: binds
Molecule: Rho associated coiled-coil containing protein kinase 2 (ROCK2) (from UniProt O75116 1-1388)

- binding [4]: no binding
Molecule: ULK4 pseudokinase domain residues 1-288 (ULK4PD) (from UniProt Q96C45 1-288) (domain or fragment)

- binding [1]: binds
- binding [2]: binds
- binding [3]: binds
Molecule: calmodulin regulated spectrin associated protein 1 (CAMSAP1) (from UniProt Q5T5Y3 1-1602)

- binding [1]: binds
- binding [2]: binds
- binding [3]: binds
B1: PTPN14 (protein tyrosine phosphatase, non-receptor type 14) (protein, UniProt Q15678 1-1187)
chain: MPFGLKLRRTRRYNVLSKNCFVTRIRLLDSNVIECTLSVESTGQECLEAVAQRLELRETHYFGLWFLSKSQQARWVELEKPLKKHLDKFANEPLLFFGVMFYVPNVSWLQQEATRYQYYLQVKKDVLEGRLRCTLDQVIRLAGLAVQADFGDYNQFDSQDFLREYVLFPMDLALEEAVLEELTQKVAQEHKAHSGILPAEAELMYINEVERLDGFGQEIFPVKDNHGNCVHLGIFFMGIFVRNRIGRQAVIYRWNDMGNITHNKSTILVELINKEETALFHTDDIENAKYISRLFATRHKFYKQNKICTEQSNSPPPIRRQPTWSRSSLPRQQPYILPPVHVQCGEHYSETHTSQDSIFHGNEEALYCNSHNSLDLNYLNGTVTNGSVCSVHSVNSLNCSQSFIQASPVSSNLSIPGSDIMRADYIPSHRHSAIIVPSYRPTPDYETVMRQMKRGILHTDSQSQSLRNLNIINTHAYNQPEDLVYSQPEMRERHPYTVPYGPQGVYSNKLVSPSDQRNPKNNVVPSKPGASAISHTVSTPELANMQLQGSHNYSTAHMLKNYLFRPPPPYPRPRPATSTPDLASHRHKYVSGSSPDLVTRKVQLSVKTFQEDSSPVVHQSLQEVSEPLTATKHHGTVNKRHSLEVMNSMVRGMEAMTLKSLHLPMARRNTLREQGPPEEGSGSHEVPQLPQYHHKKTFSDATMLIHSSESEEEEEEAPESVPQIPMLREKMEYSAQLQAALARIPNKPPPEYPGPRKSVSNGALRQDQASLPPAMARARVLRHGPAKAISMSRTDPPAVNGASLGPSISEPDLTSVKERVKKEPVKERPVSEMFSLEDSIIEREMMIRNLEKQKMAGLEAQKRPLMLAALNGLSVARVSGREENRVDATRVPMDERFRTLKKKLEEGMVFTEYEQIPKKKANGIFSTAALPENAERSRIREVVPYEENRVELIPTKENNTGYINASHIKVVVGGAEWHYIATQGPLPHTCHDFWQMVWEQGVNVIAMVTAEEEGGRTKSHRYWPKLGSKHSSATYGKFKVTTKFRTDSVCYATTGLKVKHLLSGQERTVWHLQYTDWPDHGCPEDVQGFLSYLEEIQSVRRHTNSMLEGTKNRHPPIVVHCSAGVGRTGVLILSELMIYCLEHNEKVEVPMMLRLLREQRMFMIQTIAQYKFVYQVLIQFLQNSRLI
